According to the supplement of paper PMC6078165:

Tested on: HCC1143
Assay: relative JC-1 red fluorescence (viability) vs pre-drug, coculture with fibroblast (fraction); higher = more viable cancer cells
Details: 10 µM
Experimental: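 JC-1 labelled TNBC cells cocultured 1:1 (1,500 cells each) with CellTrace Violet stained primary or stromal fibroblasts in 384-well plates in FluoroBrite medium, treated with one of 42 anticancer drugs at 0.1, 1, 10 or 100 uM. JC-1 red fluorescence (mitochondrial integrity in cancer cells only) was read by plate reader every 8 h for 72 h. Values are normalised to each well's pre-drug value. The stock of one drug was tenfold lower, so its dose labels may be too high.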

CCC1=C[C@@H]2CN(C1)Cc1c([nH]c3ccccc13)[C@@](C(=O)OC)(c1cc3c(cc1OC)N(C)[C@H]1[C@@](O)(C(=O)OC)[C@H](OC(C)=O)[C@]4(CC)C=CCN5CC[C@]31[C@@H]54)C2 [Vinorelbine]
relative JC-1 red fluorescence
Details | 8 h | 16 h | 24 h | 32 h | 40 h | 48 h | 56 h | 64 h | 72 h
coculture fibroblast: C12385 | 0.8854 | 0.8408 | 0.7974 | 0.748 | 0.699 | 0.653 | 0.624 | 0.583 | 0.557
coculture fibroblast: H6013 | 0.759 | 0.698 | 0.667 | 0.678 | 0.594 | 0.568 | 0.545 | 0.518 | 0.58
coculture fibroblast: H6019 | 0.8782 | 0.8202 | 0.7776 | 0.73 | 0.6956 | 0.6626 | 0.62 | 0.588 | 0.565
coculture fibroblast: H6076 | 0.813 | 0.8954 | 0.904 | 0.784 | 0.827 | 0.793 | 0.754 | 0.744 | 0.717
coculture fibroblast: H6231 | 0.816 | 0.94 | 0.867 | 0.5905 | 0.762 | 0.719 | 0.7 | 0.658 | 0.616
coculture fibroblast: HADF | 0.729 | 0.6741 | 0.65126 | 0.6583 | 0.56 | 0.528 | 0.512 | 0.486 | 0.5536
coculture fibroblast: HCFa | 0.77 | 0.697 | 0.671 | 0.702 | 0.593 | 0.567 | 0.561 | 0.549 | 0.623
coculture fibroblast: HCPF | 0.8313 | 0.967 | 0.903 | 0.678 | 0.828 | 0.7707 | 0.7504 | 0.7226 | 0.678
coculture fibroblast: HHSteC | 0.835 | 0.795 | 0.775 | 0.767 | 0.685 | 0.658 | 0.63 | 0.602 | 0.634
coculture fibroblast: HMF | 0.852 | 0.949 | 0.947 | 0.763 | 0.879 | 0.85 | 0.815 | 0.795 | 0.762
coculture fibroblast: HPFa | 0.943 | 0.869 | 0.841 | 0.746 | 0.725 | 0.696 | 0.653 | 0.618 | 0.587
coculture fibroblast: HUF | 0.9246 | 0.87 | 0.83 | 0.769 | 0.731 | 0.686 | 0.649 | 0.616 | 0.576
coculture fibroblast: Hs5 | 0.845 | 0.904 | 0.943 | 0.851 | 0.849 | 0.819 | 0.783 | 0.759 | 0.739
coculture fibroblast: Hs27A | 0.768 | 0.714 | 0.68 | 0.721 | 0.581 | 0.536 | 0.518 | 0.497 | 0.602
coculture fibroblast: Hs343T | 0.859 | 0.833 | 0.951 | 0.797 | 0.859 | 0.816 | 0.77 | 0.76191 | 0.7194
coculture fibroblast: WS1 | 0.878 | 0.835 | 0.792 | 0.736 | 0.692 | 0.657 | 0.617 | 0.586 | 0.557

The reference is the same well before dosing, and untreated signal decays as well.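 Fibroblast labels denote human fibroblasts, mainly primary ones from uterus (C12385, HUF), lung (H6013), bone (Hs27A), adrenal (HADF) and skin (WS1), plus mammary HMF and breast cancer-associated Hs343T. Cancer cells are basal-like or mesenchymal-like triple-negative breast cancer lines. A hit is a response shift exceeding 3x replicate standard deviation. The tissue of the other fibroblasts is not given here.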
